Measurements reported in patent publication US20190127454A1 (ACADEMIA SINICA, published 2019).
These are yes or no findings as the source states them, for the method shown. Some entries that bind do so weakly or less than the wild type.

Target: T1, mouse recombinant SCUBE2 (mouse) (UniProt Q9JJS0)
T1 sequence (looked up): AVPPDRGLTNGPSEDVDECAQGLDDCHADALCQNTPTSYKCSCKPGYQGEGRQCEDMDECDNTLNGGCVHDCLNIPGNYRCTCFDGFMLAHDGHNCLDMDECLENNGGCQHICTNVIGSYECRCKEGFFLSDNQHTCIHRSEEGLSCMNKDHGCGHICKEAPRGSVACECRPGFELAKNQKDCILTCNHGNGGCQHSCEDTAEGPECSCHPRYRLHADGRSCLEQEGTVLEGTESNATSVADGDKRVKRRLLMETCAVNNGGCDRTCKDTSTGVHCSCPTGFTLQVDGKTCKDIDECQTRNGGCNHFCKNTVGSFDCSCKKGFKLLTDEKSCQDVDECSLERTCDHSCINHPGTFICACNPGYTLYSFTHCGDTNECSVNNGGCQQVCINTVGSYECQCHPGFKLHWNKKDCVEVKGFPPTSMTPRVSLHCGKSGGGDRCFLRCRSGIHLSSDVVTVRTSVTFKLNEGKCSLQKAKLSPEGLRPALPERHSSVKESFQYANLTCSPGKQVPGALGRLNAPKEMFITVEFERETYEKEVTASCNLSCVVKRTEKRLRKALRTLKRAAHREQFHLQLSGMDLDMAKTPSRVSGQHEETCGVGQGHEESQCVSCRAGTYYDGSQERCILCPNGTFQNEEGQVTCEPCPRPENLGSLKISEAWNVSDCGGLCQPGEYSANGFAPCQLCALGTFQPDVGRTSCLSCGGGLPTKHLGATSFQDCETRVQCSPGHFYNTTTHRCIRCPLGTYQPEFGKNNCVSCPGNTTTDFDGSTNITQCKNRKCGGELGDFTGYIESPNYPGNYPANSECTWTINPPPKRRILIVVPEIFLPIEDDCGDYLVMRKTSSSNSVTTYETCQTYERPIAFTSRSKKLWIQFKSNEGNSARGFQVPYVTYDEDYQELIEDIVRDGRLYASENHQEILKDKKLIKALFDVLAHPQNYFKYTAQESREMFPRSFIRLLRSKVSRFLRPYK
Test: western blot of recombinant protein expressed in HEK-293T cells

- binding: binds
B1: anti-SCUBE2 mAb clone SP-B1 (antibody, IgG1, V domains shown)
VH: EVQLQQSGPELVKPGASVKVSCKASGYAFTSYNMYWVKQSHGKSLEWIGYIDPYNGDTNNNQKFKGKATLTVDKSSSTAYMHLNSLTSEDSAVYYCARSYRYLAWFAYWGQGTLVTVSA
VL: DIVMTQSPLSLPVSLGDQASISCRSSQSIVHSNGNTYLEWYLQKPGQSPKLLIYTVSNRFSGVPDRFSGSGSGTDFTLRISRVEAEDLGVYYCFQGSHIPYTFGGGTKLELK
notes: also called SP.B1 mAb
